Binding data for 2 substances are collected here from publication PMC10176748.

The chains behind the UniProt entries cited, without tags or fusion partners. Where a name states a change or a piece, a line headed by the entry shows the natural chain unless it says otherwise. Residues count along the entry.
UniProt P97857: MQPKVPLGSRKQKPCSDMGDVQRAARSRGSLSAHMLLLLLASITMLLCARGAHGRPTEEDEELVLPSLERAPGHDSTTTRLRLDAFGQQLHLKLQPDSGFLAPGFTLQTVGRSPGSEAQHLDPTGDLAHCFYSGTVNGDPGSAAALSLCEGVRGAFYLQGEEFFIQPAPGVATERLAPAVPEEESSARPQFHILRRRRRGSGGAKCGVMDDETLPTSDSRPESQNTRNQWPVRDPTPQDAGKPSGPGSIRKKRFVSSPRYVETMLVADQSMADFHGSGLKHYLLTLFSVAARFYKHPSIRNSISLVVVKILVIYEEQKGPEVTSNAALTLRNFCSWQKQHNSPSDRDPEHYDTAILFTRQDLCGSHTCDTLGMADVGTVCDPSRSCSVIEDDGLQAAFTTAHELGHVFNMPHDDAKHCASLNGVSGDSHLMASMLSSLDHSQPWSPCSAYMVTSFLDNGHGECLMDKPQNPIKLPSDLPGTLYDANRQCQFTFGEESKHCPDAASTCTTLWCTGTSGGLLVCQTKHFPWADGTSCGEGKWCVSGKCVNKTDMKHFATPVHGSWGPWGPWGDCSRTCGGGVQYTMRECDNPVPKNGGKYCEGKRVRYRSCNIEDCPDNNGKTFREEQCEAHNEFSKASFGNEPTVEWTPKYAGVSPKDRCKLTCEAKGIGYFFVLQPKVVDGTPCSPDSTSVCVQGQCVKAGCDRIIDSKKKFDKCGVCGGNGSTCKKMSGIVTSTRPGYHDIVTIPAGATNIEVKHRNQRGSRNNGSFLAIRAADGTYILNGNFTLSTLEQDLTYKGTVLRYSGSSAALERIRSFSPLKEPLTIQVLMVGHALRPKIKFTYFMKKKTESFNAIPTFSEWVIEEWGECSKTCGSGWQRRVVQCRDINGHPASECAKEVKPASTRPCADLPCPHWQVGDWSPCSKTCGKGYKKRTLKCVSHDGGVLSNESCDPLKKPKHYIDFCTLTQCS
UniProt Q64339, residues 1-155: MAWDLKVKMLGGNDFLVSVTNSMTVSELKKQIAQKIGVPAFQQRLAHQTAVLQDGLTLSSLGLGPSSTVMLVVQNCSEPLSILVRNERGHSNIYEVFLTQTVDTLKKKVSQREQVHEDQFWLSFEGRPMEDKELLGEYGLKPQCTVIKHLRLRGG

In one experiment the target is HA-ADAMTS1 (mouse) (UniProt P97857). The experiment can be described thus: co-IP; mGCs co-transfected with tagged ADAMTS1 and tagged ISG15 (or ISG15-AA); lysates immunoprecipitated with anti-HA or anti-FLAG beads overnight at 4 °C, PBST washes, immunoblot. Background: In western blotting, separated proteins are transferred to a membrane and probed.
The target in the next experiment is FLAG-ADAMTS1 (mouse) (UniProt P97857). The experiment is described as above.

These are yes or no findings as the source states them, for the method shown. In cells and extracts the contact can be indirect. Binding calls can cover weak binding; strength is not graded here.

Consider “FLAG-ISG15 (interferon-stimulated gene 15) (from UniProt Q64339 1-155)”, for which the binding entry with HA-ADAMTS1 (mouse) was “binds”. As to HA-ISG15 (from UniProt Q64339 1-155), the binding entry with FLAG-ADAMTS1 (mouse) was “binds”.
